# Results: patent US20100184699A1, “Peptide Derived From Prostate-Related Protein As Cancer Vaccine Candidate For Prostate Cancer Patient Who Is Positive For Hla-A3 Super-Type Allele Molecule” (priority 2005, published 2010)
# Part of at least one peptide drawing is inferred or uncertain, most often the ends. Some compounds share one wording; it may come from a single statement. Peptide text beside a SMILES is read from it.
# Test system: peptide-specific IgG in plasma of prostate cancer patients and healthy donors
# Experiment: Detection of peptide-specific IgG in plasma by ELISA
# Format: binding, human
# Conditions: for IgG reactive to peptide in plasma: 1:100-diluted plasma
compound,measurement,setting,value
CC[C@H](C)[C@H](NC(=O)CN)C(=O)N[C@@H](Cc1c[nH]cn1)C(=O)N[C@@H](CCCCN)C(=O)N[C@@H](CCC(N)=O)C(=O)N[C@@H](CCCCN)C(=O)N[C@@H](CCC(=O)O)C(=O)N[C@@H](CCCCN)C(=O)N[C@@H](CO)C(=O)N[C@@H](CCCNC(=N)N)C(=O)O [PAP 248-257] (H-GIHKQKEKSR-OH),IgG reactive to peptide in plasma,"Healthy donor 1, A31",+ (IgG reactive to a corresponding peptide was judged to be positive when a difference of the optical density (OD) in a 1:100-diluted plasma was more than 100)
same,IgG reactive to peptide in plasma,"Healthy donor 2, A3",+ (IgG reactive to a corresponding peptide was judged to be positive when a difference of the optical density (OD) in a 1:100-diluted plasma was more than 100)
same,IgG reactive to peptide in plasma,"Healthy donor 4, A31",+ (IgG reactive to a corresponding peptide was judged to be positive when a difference of the optical density (OD) in a 1:100-diluted plasma was more than 100)
same,IgG reactive to peptide in plasma,"Healthy donor 8, A31",+ (IgG reactive to a corresponding peptide was judged to be positive when a difference of the optical density (OD) in a 1:100-diluted plasma was more than 100)
same,"IgG reactive to peptide in plasma, Total (positive/tested)",Healthy donors,4/9
same,IgG reactive to peptide in plasma,"Prostate cancer patient 1, A31",+ (IgG reactive to a corresponding peptide was judged to be positive when a difference of the optical density (OD) in a 1:100-diluted plasma was more than 100)
same,IgG reactive to peptide in plasma,"Prostate cancer patient 2, A31",+ (IgG reactive to a corresponding peptide was judged to be positive when a difference of the optical density (OD) in a 1:100-diluted plasma was more than 100)
same,IgG reactive to peptide in plasma,"Prostate cancer patient 3, A31",+ (IgG reactive to a corresponding peptide was judged to be positive when a difference of the optical density (OD) in a 1:100-diluted plasma was more than 100)
same,IgG reactive to peptide in plasma,"Prostate cancer patient 4, A31",+ (IgG reactive to a corresponding peptide was judged to be positive when a difference of the optical density (OD) in a 1:100-diluted plasma was more than 100)
same,IgG reactive to peptide in plasma,"Prostate cancer patient 5, A31",+ (IgG reactive to a corresponding peptide was judged to be positive when a difference of the optical density (OD) in a 1:100-diluted plasma was more than 100)
same,IgG reactive to peptide in plasma,"Prostate cancer patient 6, A31",+ (IgG reactive to a corresponding peptide was judged to be positive when a difference of the optical density (OD) in a 1:100-diluted plasma was more than 100)
same,IgG reactive to peptide in plasma,"Prostate cancer patient 7, A11",+ (IgG reactive to a corresponding peptide was judged to be positive when a difference of the optical density (OD) in a 1:100-diluted plasma was more than 100)
same,IgG reactive to peptide in plasma,"Prostate cancer patient 8, A11",+ (IgG reactive to a corresponding peptide was judged to be positive when a difference of the optical density (OD) in a 1:100-diluted plasma was more than 100)
same,IgG reactive to peptide in plasma,"Prostate cancer patient 9, A11",+ (IgG reactive to a corresponding peptide was judged to be positive when a difference of the optical density (OD) in a 1:100-diluted plasma was more than 100)
same,IgG reactive to peptide in plasma,"Prostate cancer patient 10, A11",+ (IgG reactive to a corresponding peptide was judged to be positive when a difference of the optical density (OD) in a 1:100-diluted plasma was more than 100)
same,IgG reactive to peptide in plasma,"Prostate cancer patient 11, A11",+ (IgG reactive to a corresponding peptide was judged to be positive when a difference of the optical density (OD) in a 1:100-diluted plasma was more than 100)
same,IgG reactive to peptide in plasma,"Prostate cancer patient 12, A11",+ (IgG reactive to a corresponding peptide was judged to be positive when a difference of the optical density (OD) in a 1:100-diluted plasma was more than 100)
same,IgG reactive to peptide in plasma,"Prostate cancer patient 13, A11",+ (IgG reactive to a corresponding peptide was judged to be positive when a difference of the optical density (OD) in a 1:100-diluted plasma was more than 100)
same,IgG reactive to peptide in plasma,"Prostate cancer patient 14, A33",+ (IgG reactive to a corresponding peptide was judged to be positive when a difference of the optical density (OD) in a 1:100-diluted plasma was more than 100)
same,IgG reactive to peptide in plasma,"Prostate cancer patient 15, A33",+ (IgG reactive to a corresponding peptide was judged to be positive when a difference of the optical density (OD) in a 1:100-diluted plasma was more than 100)
same,IgG reactive to peptide in plasma,"Prostate cancer patient 16, A33",+ (IgG reactive to a corresponding peptide was judged to be positive when a difference of the optical density (OD) in a 1:100-diluted plasma was more than 100)
same,IgG reactive to peptide in plasma,"Prostate cancer patient 17, A33",+ (IgG reactive to a corresponding peptide was judged to be positive when a difference of the optical density (OD) in a 1:100-diluted plasma was more than 100)
same,IgG reactive to peptide in plasma,"Prostate cancer patient 18, A33",+ (IgG reactive to a corresponding peptide was judged to be positive when a difference of the optical density (OD) in a 1:100-diluted plasma was more than 100)
same,IgG reactive to peptide in plasma,"Prostate cancer patient 19, A33",+ (IgG reactive to a corresponding peptide was judged to be positive when a difference of the optical density (OD) in a 1:100-diluted plasma was more than 100)
same,IgG reactive to peptide in plasma,"Prostate cancer patient 20, A33",+ (IgG reactive to a corresponding peptide was judged to be positive when a difference of the optical density (OD) in a 1:100-diluted plasma was more than 100)
same,"IgG reactive to peptide in plasma, Total (positive/tested)",Prostate cancer patients,20/20
same,level of peptide-reactive IgG after absorption,patient plasma incubated in wells coated with the corresponding peptide (FIG. 2),significantly diminished
same,frequency of detection of peptide-reactive IgG,"plasma of prostate cancer patients, compared within PSA, PAP or PSMA peptides",more frequently
